The exact form of at least one protein or probe is not confirmed. For part of these data: Protein sequences can lack the tags named with them.
Columns and labels:
Test in all cases: DNase I footprinting
[1] = molecular target: T1, H-NS (UniProt P0ACF8); conditions: H-NS alone, 40 mM Tris-acetate pH 7.9, 150 mM potassium glutamate, 4 mM magnesium acetate, 0.1 mM EDTA, 0.1 mM DTT, 0.1 mg/mL BSA, 0.05 pmol DNA in 10 uL, recombinant protein
T1 sequence (looked up, limits assumed): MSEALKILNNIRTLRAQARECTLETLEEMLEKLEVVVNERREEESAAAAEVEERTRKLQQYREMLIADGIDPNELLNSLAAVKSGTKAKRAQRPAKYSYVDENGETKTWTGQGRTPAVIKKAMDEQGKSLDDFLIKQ

[2] = molecular target: T2, MotB-His (Escherichia phage T4) (UniProt Q01437); conditions: MotB alone, 40 mM Tris-acetate pH 7.9, 150 mM potassium glutamate, 4 mM magnesium acetate, 0.1 mM EDTA, 0.1 mM DTT, 0.1 mg/mL BSA, 0.05 pmol DNA in 10 uL, recombinant protein, protein details: His
T2 sequence (looked up, limits assumed): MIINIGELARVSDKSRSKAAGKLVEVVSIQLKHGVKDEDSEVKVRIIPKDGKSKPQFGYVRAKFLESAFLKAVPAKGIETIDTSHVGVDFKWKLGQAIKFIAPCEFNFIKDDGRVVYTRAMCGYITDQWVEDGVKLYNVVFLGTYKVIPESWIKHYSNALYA

[3] = test system: MotB-His + H-NS; conditions: both proteins, 40 mM Tris-acetate pH 7.9, 150 mM potassium glutamate, 4 mM magnesium acetate, 0.1 mM EDTA, 0.1 mM DTT, 0.1 mg/mL BSA, 0.05 pmol DNA in 10 uL, recombinant protein, protein details: His

Measured: binding result

CTTCTTCCCGCTGGAAATCTGACGTTATTCGTTTTGTTCATCCAGTAGGATTTGGATTTATAGCAATTACCCTTTTAACAATGTTTATTAATGTTGGTTTAACTCTTAAACATACAGAGACTATAATTAATAAATACAAAAACTATAAATGGGATTCTGGATTGCCTACTGAATATGCCGACAGAATAGCTAAATTAACTCCAACCGGTGAAATTGAG (double strand) [Pl8 fragment (T4 late gene 8 promoter)]
binds: [1]; protects portions of the DNA, label: 5'-32P on nontemplate strand | [2]; total protection at 2.9 MotB:1 bp, none at lower levels, label: 5'-32P on nontemplate strand | [3]; pattern resembles MotB, not H-NS, label: 5'-32P on nontemplate strand

GCTCGCATCAATATTCATGCCACATTTGCCATCAGGGGTTGCCTCAGATTCTCAGTATGTTAGGGTAGAAAAAAGTGACTATTTCCATTGGGTAATATATCGACATAGACAAATAAAGGAATCTTTCTATTGCATGGCAATTAAATTAGAAATTAAAAATCTTTATAAAATATTTGGCGAGCATCCACAGCGAGCGTTCAAATATATCGAACAAGGACTTTCAAAAGAACAAATTCTGGAAAAAACTGGGCTATCGCTTGGCGTAAAAGACG (double strand) [PproV fragment (272 bp)]
binds: [1]; 4-32 pmol, protects regions downstream of TSS, label: 5'-32P | [2]; near-complete protection only at ~2.4 MotB monomers:1 bp (32 pmol), no significant change at lower levels, label: 5'-32P | [3]; together or sequential, MotB-like complete protection at 16 pmol MotB, possibly cooperative, label: 5'-32P

Reference: paper PMC7827196
